In paper doi:10.1101/2022.08.09.503273:
These are yes or no findings as the source states them, for the method shown. For part of these data: Binding seen in cells or lysates may run through a third protein. Some results given as binding are weak or reduced against the parent protein; the word gives no strength.

Columns and labels:
[1] = target: PTBP1-C23S protein, Flag- or HA-tagged (human) (UniProt P26599); assay: co-IP
[2] = target: PTBP1-WT protein, Flag- or HA-tagged (human) (UniProt P26599); assay: co-IP
[3] = target: purified PTBP1-WT protein (human) (UniProt P26599); assay: SDS-PAGE of purified protein

With “PTBP1-C23S protein, Flag- or HA-tagged (from UniProt P26599 1-557)” the binding [1] was “no binding”.

“PTBP1-WT protein, Flag- or HA-tagged (from UniProt P26599 1-557)” was tested, and the binding [2] was “binds”.

“purified PTBP1-WT protein (from UniProt P26599 1-557)” was tested, and the binding [3] was “binds”.
